# Reference: PMC3412832
# By UniProt entry, the sequences of proteins in these tests, tags left out.
# UniProt Q04207, whole entry: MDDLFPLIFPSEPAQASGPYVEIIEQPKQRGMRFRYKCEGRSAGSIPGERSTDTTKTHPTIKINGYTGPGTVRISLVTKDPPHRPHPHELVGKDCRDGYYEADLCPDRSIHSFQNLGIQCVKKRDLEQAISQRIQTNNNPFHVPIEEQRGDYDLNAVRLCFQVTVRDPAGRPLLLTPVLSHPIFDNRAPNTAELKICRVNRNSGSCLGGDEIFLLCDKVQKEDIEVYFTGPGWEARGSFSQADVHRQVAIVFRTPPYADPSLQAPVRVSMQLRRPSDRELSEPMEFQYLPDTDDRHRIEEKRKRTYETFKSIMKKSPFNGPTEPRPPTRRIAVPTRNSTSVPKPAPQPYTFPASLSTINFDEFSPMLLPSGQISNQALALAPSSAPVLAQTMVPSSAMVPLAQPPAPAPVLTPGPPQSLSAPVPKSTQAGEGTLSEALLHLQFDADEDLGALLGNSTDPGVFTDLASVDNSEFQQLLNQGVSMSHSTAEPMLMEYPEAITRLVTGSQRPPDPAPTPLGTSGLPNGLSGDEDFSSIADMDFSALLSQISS
# At least one result comes from cells or an extract, where the contact may be indirect. A negative result means that nothing was seen under these conditions. At least one verdict was read from the data and is not stated in words by the source. For some assays here: Where a protein sequence is shown, tags need not be part of it. For some assays here: The exact form of at least one protein or probe is not confirmed.
# How the values were obtained:
# Experiment in all cases: TransAM ELISA
# [1] = target: T1, p52 (NF-kB2) (mouse (primary MEFs, wild-type and p100-/-)) (UniProt Q9WTK5); details: TransAM Flexi NF-kB kit (Active Motif), 5 ug MEF nuclear extract, OD450 minus unrelated oligo, pH and temperature not stated, protein in an extract, label: 5' biotin on upper strand
# T1 sequence (looked up, limits assumed): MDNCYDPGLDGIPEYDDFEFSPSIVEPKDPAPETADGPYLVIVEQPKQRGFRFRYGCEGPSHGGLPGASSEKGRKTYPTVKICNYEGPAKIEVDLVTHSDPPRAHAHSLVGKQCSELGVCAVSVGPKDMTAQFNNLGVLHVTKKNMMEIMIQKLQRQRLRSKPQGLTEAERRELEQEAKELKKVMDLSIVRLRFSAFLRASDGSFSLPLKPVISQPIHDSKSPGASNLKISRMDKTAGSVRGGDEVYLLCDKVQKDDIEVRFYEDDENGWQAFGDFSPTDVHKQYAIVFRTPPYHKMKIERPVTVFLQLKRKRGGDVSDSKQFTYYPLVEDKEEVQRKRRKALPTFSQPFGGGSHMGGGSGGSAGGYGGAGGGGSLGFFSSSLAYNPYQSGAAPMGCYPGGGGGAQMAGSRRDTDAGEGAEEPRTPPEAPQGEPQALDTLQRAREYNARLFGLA
# [2] = target: T2, p50 (NF-kB1) (mouse (primary MEFs, wild-type and p100-/-)) (UniProt P25799); details: close to background, TransAM Flexi NF-kB kit (Active Motif), 5 ug MEF nuclear extract, OD450 minus unrelated oligo, pH and temperature not stated, protein in an extract, label: 5' biotin on upper strand
# T2 sequence (looked up, limits assumed): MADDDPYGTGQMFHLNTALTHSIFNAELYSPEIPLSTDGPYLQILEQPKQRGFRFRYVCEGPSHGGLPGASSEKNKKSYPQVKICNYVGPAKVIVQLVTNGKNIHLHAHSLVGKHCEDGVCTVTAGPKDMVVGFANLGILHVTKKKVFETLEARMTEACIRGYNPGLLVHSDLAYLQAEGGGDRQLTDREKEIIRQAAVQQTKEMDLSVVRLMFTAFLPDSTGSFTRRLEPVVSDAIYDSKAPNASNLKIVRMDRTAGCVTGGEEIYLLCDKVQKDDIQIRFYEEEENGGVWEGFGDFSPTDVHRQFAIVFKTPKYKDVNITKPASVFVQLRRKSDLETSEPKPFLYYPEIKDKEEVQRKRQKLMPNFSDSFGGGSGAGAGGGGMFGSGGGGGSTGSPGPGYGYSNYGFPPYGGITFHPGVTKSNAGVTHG
# [3] = target: RelA (p65) (mouse (primary MEFs, wild-type and p100-/-)) (UniProt Q04207); details: close to background, TransAM Flexi NF-kB kit (Active Motif), 5 ug MEF nuclear extract, OD450 minus unrelated oligo, pH and temperature not stated, protein in an extract, label: 5' biotin on upper strand
# [4] = target: T3, RelB (mouse (primary MEFs, wild-type and p100-/-)) (UniProt Q04863); details: TransAM Flexi NF-kB kit (Active Motif), 5 ug MEF nuclear extract, OD450 minus unrelated oligo, pH and temperature not stated, protein in an extract, label: 5' biotin on upper strand
# T3 sequence (looked up, limits assumed): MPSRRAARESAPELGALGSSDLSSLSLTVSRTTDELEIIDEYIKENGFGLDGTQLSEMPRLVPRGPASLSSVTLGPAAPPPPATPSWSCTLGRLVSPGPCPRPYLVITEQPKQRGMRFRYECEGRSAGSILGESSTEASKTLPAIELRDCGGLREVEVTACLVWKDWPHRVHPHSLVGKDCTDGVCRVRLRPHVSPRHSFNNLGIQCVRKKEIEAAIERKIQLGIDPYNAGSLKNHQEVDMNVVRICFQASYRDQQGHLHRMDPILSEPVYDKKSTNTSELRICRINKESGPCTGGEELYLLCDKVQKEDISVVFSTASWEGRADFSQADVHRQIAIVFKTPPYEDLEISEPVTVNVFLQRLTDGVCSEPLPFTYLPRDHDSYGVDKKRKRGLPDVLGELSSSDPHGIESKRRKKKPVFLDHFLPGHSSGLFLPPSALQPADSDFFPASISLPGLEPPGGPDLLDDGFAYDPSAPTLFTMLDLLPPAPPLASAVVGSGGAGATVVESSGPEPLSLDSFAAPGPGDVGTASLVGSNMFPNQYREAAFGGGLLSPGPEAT
# [5] = p100-/- extract, increased over wild-type, further with TNF
Sequence,"binding result [1, 5]",binding result ([2]; wild-type and p100-/- extract),binding result ([3]; wild-type and p100-/- extract),"binding result [4, 5]",binding result ([1]; close to background),binding result [2],binding result [3],binding result ([4]; close to background)
AATGTTATCTCTCGTGTGAGTTGCAATTTTGGAAGCTCCCATTGTGTGAA (double strand) [ATX3.2],binds,no binding,no binding,binds,,,,
AGTAGCTGACAATGTATTTATATAGATACAGGGTCATTCCAACTGCCAGA (double strand) [ATX3.1],binds,no binding,no binding,binds,,,,
CTTCCAAGGAGAGCCTAGGTTTTCTTAGAGATGGGTTTCTATGTCAGAGA (double strand) [ATXunr1],,,,,no binding,no binding,no binding,no binding
GTGCTATCGGGTTTTATGCGAGCAGAGCCACGGGGGCTTCCTTTAAGCAG (double strand) [ATX4],binds,no binding,no binding,binds,,,,
TGTTTTACAGTTGATTCGATGCCAAGATAAGGCTATCCTCCTGACTGCCT (double strand) [ATXunr2],,,,,no binding,no binding,no binding,no binding
